Record: PubChem BioAssay AID1259405 (NCATS, 2018)
Here is an unselected part of about 50,000 deposited reagents. About 4,000 of all reagents (8%) were called active. 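Mouse siRNA library applied to hamster cells; one well for each siRNA.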 The numbers tell different reagents against one gene apart.

Test: 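Knock-downs that lift recombinant protein yield in hamster ovary cells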 (primary screen)
Cell system: Chinese hamster CHO-K1 ovary cells with stable secreted eGFP expression
Reagent: single siRNA against mouse genes, 0.8 pmol siRNA per well (2 µl of 400 nM stock)
Timing: 3 days
Measured: 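Per-well intracellular GFP measured by laser scanning cytometry, plus viability from ATP luminescence, each relative to plate median of non-targeting control wells, in %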
Scale: GFP, % of control: higher = more GFP per well, higher productivity; viability (ATP), % of control: higher = more viable cells (more ATP)
Active means: 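a knock-down is called active if GFP reaches 120% or more of non-targeting control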

Gene,siRNA no.,"GFP, % of control","viability (ATP), % of control",activity call
Tmem237 (transmembrane protein 237),1,90.4,56.5,inactive
Tmem237 (transmembrane protein 237),2,59.4,63.2,inactive
Tmem237 (transmembrane protein 237),3,121,102,active
Klk1b27 (kallikrein 1-related peptidase b27),1,140,99.8,active
Klk1b27 (kallikrein 1-related peptidase b27),2,82.7,60.1,inactive
Klk1b27 (kallikrein 1-related peptidase b27),3,71.3,65.3,inactive
Krt19 (keratin 19),1,68.1,69,inactive
Krt19 (keratin 19),2,94.7,75.4,inactive
Togaram2 (TOG array regulator of axonemal microtubules 2),1,58.9,92.2,inactive
Togaram2 (TOG array regulator of axonemal microtubules 2),2,86.8,66.1,inactive
Togaram2 (TOG array regulator of axonemal microtubules 2),3,53.9,118,inactive
B230206H07Rik (RIKEN cDNA B230206H07 gene),1,84.5,84.6,inactive
B230206H07Rik (RIKEN cDNA B230206H07 gene),2,68.9,70.5,inactive
B230206H07Rik (RIKEN cDNA B230206H07 gene),3,94.4,96.2,inactive
A530016L24Rik (RIKEN cDNA A530016L24 gene),1,83,53.7,inactive
A530016L24Rik (RIKEN cDNA A530016L24 gene),2,95.9,95.5,inactive
A530016L24Rik (RIKEN cDNA A530016L24 gene),3,90.2,125,inactive
Slc41a3,1,105,66.7,inactive
Slc41a3,2,87.3,57.2,inactive
Slc41a3,3,77.7,73.4,inactive
Desi2 (desumoylating isopeptidase 2),1,69.6,61.2,inactive
Desi2 (desumoylating isopeptidase 2),2,102,92.6,inactive
Desi2 (desumoylating isopeptidase 2),3,108,104,inactive
Ctrl (chymotrypsin-like),1,69.5,122,inactive
Ctrl (chymotrypsin-like),2,66.6,30.6,inactive
Ctrl (chymotrypsin-like),3,68.3,67.4,inactive
Tmed5 (transmembrane p24 trafficking protein 5),1,77.5,74.5,inactive
Tmed5 (transmembrane p24 trafficking protein 5),2,57.8,64.5,inactive
Tmed5 (transmembrane p24 trafficking protein 5),3,53.1,62.5,inactive
BC028528 (cDNA sequence BC028528),1,87.5,61.1,inactive
BC028528 (cDNA sequence BC028528),2,89.6,94.7,inactive
BC028528 (cDNA sequence BC028528),3,81.4,96.2,inactive
BC005624 (cDNA sequence BC005624),1,45.3,59.7,inactive
BC005624 (cDNA sequence BC005624),2,94.6,105,inactive
BC005624 (cDNA sequence BC005624),3,147,139,active

4 successive entries already listed:
Gene,siRNA no.,"GFP, % of control","viability (ATP), % of control",activity call
Togaram2 (TOG array regulator of axonemal microtubules 2),3,53.9,118,inactive
B230206H07Rik (RIKEN cDNA B230206H07 gene),1,84.5,84.6,inactive
B230206H07Rik (RIKEN cDNA B230206H07 gene),2,68.9,70.5,inactive
B230206H07Rik (RIKEN cDNA B230206H07 gene),3,94.4,96.2,inactive

More entries follow:
Gene,siRNA no.,"GFP, % of control","viability (ATP), % of control",activity call
Tyw1 (tRNA-yW synthesizing protein 1 homolog (S. cerevisiae)),1,57.8,39,inactive
Tyw1 (tRNA-yW synthesizing protein 1 homolog (S. cerevisiae)),2,140,81.2,active
Tyw1 (tRNA-yW synthesizing protein 1 homolog (S. cerevisiae)),3,86.3,77,inactive
"Pole2 (polymerase (DNA directed), epsilon 2 (p59 subunit))",1,133,92.1,active
"Pole2 (polymerase (DNA directed), epsilon 2 (p59 subunit))",2,68.6,71.2,inactive
Nsg2 (neuron specific gene family member 2),1,38.1,28.2,inactive
Nsg2 (neuron specific gene family member 2),2,74.3,78.7,inactive
Nsg2 (neuron specific gene family member 2),3,61.4,55.8,inactive
"Ankrd13d (ankyrin repeat domain 13 family, member D)",1,64.2,76.7,inactive
"Ankrd13d (ankyrin repeat domain 13 family, member D)",2,59.7,72,inactive
"Ankrd13d (ankyrin repeat domain 13 family, member D)",3,68.7,49.3,inactive
Psen2 (presenilin 2),1,62.4,67.8,inactive
Psen2 (presenilin 2),2,76.5,58.7,inactive
Psen2 (presenilin 2),3,108,95.8,inactive
Tanc1,1,67.8,79.6,inactive
Tanc1,2,105,83.1,inactive
Tanc1,3,228,90.2,active
Tanc1,4,67.8,86.2,inactive
Tanc1,5,95.6,92.9,inactive
Tanc1,6,141,93.3,active
Cntf (ciliary neurotrophic factor),1,66,28.6,inactive
Cntf (ciliary neurotrophic factor),2,125,92,active
Cntf (ciliary neurotrophic factor),3,62.8,64.6,inactive
Myoz3 (myozenin 3),1,95.4,56.6,inactive
Myoz3 (myozenin 3),2,56.3,51.6,inactive
Ccl17 (C-C motif chemokine ligand 17),1,81,108,inactive
Ccl17 (C-C motif chemokine ligand 17),2,77,85.6,inactive
Ipo7 (importin 7),1,41.2,72.4,inactive
Ipo7 (importin 7),2,49.8,69.3,inactive
Ipo7 (importin 7),3,55.3,71.3,inactive
Prpf8 (pre-mRNA processing factor 8),1,95.2,104,inactive
Prpf8 (pre-mRNA processing factor 8),2,82.9,82.8,inactive
Mbp (myelin basic protein),1,38.1,33.9,inactive
Mbp (myelin basic protein),2,128,76.4,active
Mbp (myelin basic protein),3,64,41.9,inactive
Pgm3 (phosphoglucomutase 3),1,143,138,active
Pgm3 (phosphoglucomutase 3),2,122,84.4,active
Pgm3 (phosphoglucomutase 3),3,62.6,66.1,inactive
Zfp385b (zinc finger protein 385B),1,53.9,92,inactive
Zfp385b (zinc finger protein 385B),2,59.5,66.9,inactive
Zfp385b (zinc finger protein 385B),3,70,105,inactive
Zfp354c (zinc finger protein 354C),1,68.4,68.9,inactive
Zfp354c (zinc finger protein 354C),2,57.9,75.2,inactive
Zfp354c (zinc finger protein 354C),3,77.4,81.9,inactive
"Tbc1d15 (TBC1 domain family, member 15)",1,89.4,80.4,inactive
"Tbc1d15 (TBC1 domain family, member 15)",2,111,89.6,inactive
"Tbc1d15 (TBC1 domain family, member 15)",3,70.2,64.5,inactive
AI661453 (expressed sequence AI661453),1,62.1,87.3,inactive
AI661453 (expressed sequence AI661453),2,93.9,88.1,inactive
AI661453 (expressed sequence AI661453),3,46.8,72.5,inactive
